Data: patent US20060034860A1
No constants are given. Whether binding was seen depends on the method and setting. Some results given as binding are weak or reduced against the parent protein; the word gives no strength.

Experiments:
[1] = target: HIV-1 Integrase (IN), bait IN (HIV-1 isolate YU2) (UniProt P35963); experiment: yeast two-hybrid screen, IN bait
[2] = target: HIV-1 Integrase (IN), bait IN (HIV-1 isolate YU2) (UniProt P35963); experiment: yeast two-hybrid screen, bait IN (pB27), CEMC7 random primed cDNA prey library; table of bait-prey interactions
[3] = target: HIV-1 Integrase (IN), bait IN (HIV-1 isolate YU2) (UniProt P35963); experiment: yeast two-hybrid screen, IN bait, CEM cDNA prey libraries

Binder	binding [1]	binding [2]	binding [3]
Human PIASY (prey000022), prey fragments (enzyme) AAELVEAKNMVMSFRVSDLQMLLGFVGRSKSGLKHELVTRALQLVQFDCSPELFKKIKELYETRYAKKNSEPAPQPHRPLDPLTMHSTYDRAGAVPRTPLAGPNIDYPVLYGKYLNGLGRLPAKTLKPEVRLVKLPFFNMLDELLKPTELVPQNNEKLQESPCIFALTPRQVELIRNSRELQPGVKAVQVVLRICYSDTSCPQEDQYPPNIAVKVNHSYCSVPGYYPSNKPGVEPKRPCRPINLTHLMYLSSATNRITVTWGNYGKSYSVALYLVRQLTSSELLQRLKTIGVKHPELCKALVKEKLRLDPDSEIATTGVRVSLICPLVKMRLSVPCRAETCAHLQCFDAVFYLQMNEKKPTWMCPVCDKPAPYDQLIIDGLLSKILSECEDADEIEYLVDGSWCPIRAEKERSCSPQGAILVLGPSDANGLLPAPSVNGSGALGSTGGGGPVGSMENGKPGADVVDLTLDSSSSSEDEEEEEEEEEDEDEEGPRPKRRCPFQKGLVPAC	binds	binds	–
Human TRN-SR (prey007766), prey fragments (protein) MEGAKPTLQLVYQAVQALYHDPDPSGKERASFWLGELQRSVHAWEISDQLLQIRQDVESCYFAAQTMKMKIQTSFYELPTDSHASLRDSLLTHIQNLKDLSPVIVTQLALAIADLALQMPSWKGCVQTLVEKYSNDVTSLPFLLEILTVLPEEVHSRSLRIGANRRTEIIEDLAFYSSTVVSLLMTCVEKAGTDEKMLMKVFRCLGSWFNLGVLDSNFMANNKLLALLFEVLQQDKTSSNLHEAASDCVCSALYAIENVETNLPLAMQLFQGVLTLETAYHMAVAREDLDKVLNYCRIFTELCETFLEKIVCTPGQGLGDLRTLELLLICAGHPQYEVVEISFNFWYRLGEHLYKTNDEVIHGIFKAYIQRLLHALARHCQLEPDHEGVPEETDDFGEFRMRVSDLVKDLIFLIGSMECFAQLYSTLKEGNPPWEVTEAVLFIMAAIAKSVDPENNPTLVEVLEGVVRLPETVHTAVRYTSIELVGEMSEVVDRNPQFLDPVLGYLMKGLCEKPLASAAAKAIHNICSVCRDHMAQHFNGLLEIARSLDSFLLSPEAAVGLLKGTALVLARLPLDKITECLSELCSVQVMALKKLLSQEPSNGISSDPTVFLDRLAVIFRHTNPIVENGQTHPCQKVIQEIWPVLSETLNKHRADNRIVERCCRCLRFAVRCVGKGSAALLQPLVTQMVNVYHVHQHSCFLYLGSILVDEYGMEEGCRQGLLDMLQALCIPTFQLLEQQNGLQNHPDTVDDLFRLATRFIQRSPVTLLRSQVVIPILQWAIASTTLDHRDANCSVMRFLRDLIHTGVANDHEEDFELRKELIGQVMNQLGQQLVSQLLHTCCFCLPPYTLPDVAEVLWEIMQVDRPTFCRWLENSLKGLPKETTVGAVTVTHKQLTDFHKQVTSAEECKQVCWALRDFTRLFR	–	binds	binds
